The supplement of paper PMC10849652
Some of the results follow.

By UniProt entry, the sequences of proteins in these tests, tags left out. Where a name states a change or a piece, a line headed by the entry shows the natural chain unless it says otherwise.
UniProt Q14204, whole entry, looked up: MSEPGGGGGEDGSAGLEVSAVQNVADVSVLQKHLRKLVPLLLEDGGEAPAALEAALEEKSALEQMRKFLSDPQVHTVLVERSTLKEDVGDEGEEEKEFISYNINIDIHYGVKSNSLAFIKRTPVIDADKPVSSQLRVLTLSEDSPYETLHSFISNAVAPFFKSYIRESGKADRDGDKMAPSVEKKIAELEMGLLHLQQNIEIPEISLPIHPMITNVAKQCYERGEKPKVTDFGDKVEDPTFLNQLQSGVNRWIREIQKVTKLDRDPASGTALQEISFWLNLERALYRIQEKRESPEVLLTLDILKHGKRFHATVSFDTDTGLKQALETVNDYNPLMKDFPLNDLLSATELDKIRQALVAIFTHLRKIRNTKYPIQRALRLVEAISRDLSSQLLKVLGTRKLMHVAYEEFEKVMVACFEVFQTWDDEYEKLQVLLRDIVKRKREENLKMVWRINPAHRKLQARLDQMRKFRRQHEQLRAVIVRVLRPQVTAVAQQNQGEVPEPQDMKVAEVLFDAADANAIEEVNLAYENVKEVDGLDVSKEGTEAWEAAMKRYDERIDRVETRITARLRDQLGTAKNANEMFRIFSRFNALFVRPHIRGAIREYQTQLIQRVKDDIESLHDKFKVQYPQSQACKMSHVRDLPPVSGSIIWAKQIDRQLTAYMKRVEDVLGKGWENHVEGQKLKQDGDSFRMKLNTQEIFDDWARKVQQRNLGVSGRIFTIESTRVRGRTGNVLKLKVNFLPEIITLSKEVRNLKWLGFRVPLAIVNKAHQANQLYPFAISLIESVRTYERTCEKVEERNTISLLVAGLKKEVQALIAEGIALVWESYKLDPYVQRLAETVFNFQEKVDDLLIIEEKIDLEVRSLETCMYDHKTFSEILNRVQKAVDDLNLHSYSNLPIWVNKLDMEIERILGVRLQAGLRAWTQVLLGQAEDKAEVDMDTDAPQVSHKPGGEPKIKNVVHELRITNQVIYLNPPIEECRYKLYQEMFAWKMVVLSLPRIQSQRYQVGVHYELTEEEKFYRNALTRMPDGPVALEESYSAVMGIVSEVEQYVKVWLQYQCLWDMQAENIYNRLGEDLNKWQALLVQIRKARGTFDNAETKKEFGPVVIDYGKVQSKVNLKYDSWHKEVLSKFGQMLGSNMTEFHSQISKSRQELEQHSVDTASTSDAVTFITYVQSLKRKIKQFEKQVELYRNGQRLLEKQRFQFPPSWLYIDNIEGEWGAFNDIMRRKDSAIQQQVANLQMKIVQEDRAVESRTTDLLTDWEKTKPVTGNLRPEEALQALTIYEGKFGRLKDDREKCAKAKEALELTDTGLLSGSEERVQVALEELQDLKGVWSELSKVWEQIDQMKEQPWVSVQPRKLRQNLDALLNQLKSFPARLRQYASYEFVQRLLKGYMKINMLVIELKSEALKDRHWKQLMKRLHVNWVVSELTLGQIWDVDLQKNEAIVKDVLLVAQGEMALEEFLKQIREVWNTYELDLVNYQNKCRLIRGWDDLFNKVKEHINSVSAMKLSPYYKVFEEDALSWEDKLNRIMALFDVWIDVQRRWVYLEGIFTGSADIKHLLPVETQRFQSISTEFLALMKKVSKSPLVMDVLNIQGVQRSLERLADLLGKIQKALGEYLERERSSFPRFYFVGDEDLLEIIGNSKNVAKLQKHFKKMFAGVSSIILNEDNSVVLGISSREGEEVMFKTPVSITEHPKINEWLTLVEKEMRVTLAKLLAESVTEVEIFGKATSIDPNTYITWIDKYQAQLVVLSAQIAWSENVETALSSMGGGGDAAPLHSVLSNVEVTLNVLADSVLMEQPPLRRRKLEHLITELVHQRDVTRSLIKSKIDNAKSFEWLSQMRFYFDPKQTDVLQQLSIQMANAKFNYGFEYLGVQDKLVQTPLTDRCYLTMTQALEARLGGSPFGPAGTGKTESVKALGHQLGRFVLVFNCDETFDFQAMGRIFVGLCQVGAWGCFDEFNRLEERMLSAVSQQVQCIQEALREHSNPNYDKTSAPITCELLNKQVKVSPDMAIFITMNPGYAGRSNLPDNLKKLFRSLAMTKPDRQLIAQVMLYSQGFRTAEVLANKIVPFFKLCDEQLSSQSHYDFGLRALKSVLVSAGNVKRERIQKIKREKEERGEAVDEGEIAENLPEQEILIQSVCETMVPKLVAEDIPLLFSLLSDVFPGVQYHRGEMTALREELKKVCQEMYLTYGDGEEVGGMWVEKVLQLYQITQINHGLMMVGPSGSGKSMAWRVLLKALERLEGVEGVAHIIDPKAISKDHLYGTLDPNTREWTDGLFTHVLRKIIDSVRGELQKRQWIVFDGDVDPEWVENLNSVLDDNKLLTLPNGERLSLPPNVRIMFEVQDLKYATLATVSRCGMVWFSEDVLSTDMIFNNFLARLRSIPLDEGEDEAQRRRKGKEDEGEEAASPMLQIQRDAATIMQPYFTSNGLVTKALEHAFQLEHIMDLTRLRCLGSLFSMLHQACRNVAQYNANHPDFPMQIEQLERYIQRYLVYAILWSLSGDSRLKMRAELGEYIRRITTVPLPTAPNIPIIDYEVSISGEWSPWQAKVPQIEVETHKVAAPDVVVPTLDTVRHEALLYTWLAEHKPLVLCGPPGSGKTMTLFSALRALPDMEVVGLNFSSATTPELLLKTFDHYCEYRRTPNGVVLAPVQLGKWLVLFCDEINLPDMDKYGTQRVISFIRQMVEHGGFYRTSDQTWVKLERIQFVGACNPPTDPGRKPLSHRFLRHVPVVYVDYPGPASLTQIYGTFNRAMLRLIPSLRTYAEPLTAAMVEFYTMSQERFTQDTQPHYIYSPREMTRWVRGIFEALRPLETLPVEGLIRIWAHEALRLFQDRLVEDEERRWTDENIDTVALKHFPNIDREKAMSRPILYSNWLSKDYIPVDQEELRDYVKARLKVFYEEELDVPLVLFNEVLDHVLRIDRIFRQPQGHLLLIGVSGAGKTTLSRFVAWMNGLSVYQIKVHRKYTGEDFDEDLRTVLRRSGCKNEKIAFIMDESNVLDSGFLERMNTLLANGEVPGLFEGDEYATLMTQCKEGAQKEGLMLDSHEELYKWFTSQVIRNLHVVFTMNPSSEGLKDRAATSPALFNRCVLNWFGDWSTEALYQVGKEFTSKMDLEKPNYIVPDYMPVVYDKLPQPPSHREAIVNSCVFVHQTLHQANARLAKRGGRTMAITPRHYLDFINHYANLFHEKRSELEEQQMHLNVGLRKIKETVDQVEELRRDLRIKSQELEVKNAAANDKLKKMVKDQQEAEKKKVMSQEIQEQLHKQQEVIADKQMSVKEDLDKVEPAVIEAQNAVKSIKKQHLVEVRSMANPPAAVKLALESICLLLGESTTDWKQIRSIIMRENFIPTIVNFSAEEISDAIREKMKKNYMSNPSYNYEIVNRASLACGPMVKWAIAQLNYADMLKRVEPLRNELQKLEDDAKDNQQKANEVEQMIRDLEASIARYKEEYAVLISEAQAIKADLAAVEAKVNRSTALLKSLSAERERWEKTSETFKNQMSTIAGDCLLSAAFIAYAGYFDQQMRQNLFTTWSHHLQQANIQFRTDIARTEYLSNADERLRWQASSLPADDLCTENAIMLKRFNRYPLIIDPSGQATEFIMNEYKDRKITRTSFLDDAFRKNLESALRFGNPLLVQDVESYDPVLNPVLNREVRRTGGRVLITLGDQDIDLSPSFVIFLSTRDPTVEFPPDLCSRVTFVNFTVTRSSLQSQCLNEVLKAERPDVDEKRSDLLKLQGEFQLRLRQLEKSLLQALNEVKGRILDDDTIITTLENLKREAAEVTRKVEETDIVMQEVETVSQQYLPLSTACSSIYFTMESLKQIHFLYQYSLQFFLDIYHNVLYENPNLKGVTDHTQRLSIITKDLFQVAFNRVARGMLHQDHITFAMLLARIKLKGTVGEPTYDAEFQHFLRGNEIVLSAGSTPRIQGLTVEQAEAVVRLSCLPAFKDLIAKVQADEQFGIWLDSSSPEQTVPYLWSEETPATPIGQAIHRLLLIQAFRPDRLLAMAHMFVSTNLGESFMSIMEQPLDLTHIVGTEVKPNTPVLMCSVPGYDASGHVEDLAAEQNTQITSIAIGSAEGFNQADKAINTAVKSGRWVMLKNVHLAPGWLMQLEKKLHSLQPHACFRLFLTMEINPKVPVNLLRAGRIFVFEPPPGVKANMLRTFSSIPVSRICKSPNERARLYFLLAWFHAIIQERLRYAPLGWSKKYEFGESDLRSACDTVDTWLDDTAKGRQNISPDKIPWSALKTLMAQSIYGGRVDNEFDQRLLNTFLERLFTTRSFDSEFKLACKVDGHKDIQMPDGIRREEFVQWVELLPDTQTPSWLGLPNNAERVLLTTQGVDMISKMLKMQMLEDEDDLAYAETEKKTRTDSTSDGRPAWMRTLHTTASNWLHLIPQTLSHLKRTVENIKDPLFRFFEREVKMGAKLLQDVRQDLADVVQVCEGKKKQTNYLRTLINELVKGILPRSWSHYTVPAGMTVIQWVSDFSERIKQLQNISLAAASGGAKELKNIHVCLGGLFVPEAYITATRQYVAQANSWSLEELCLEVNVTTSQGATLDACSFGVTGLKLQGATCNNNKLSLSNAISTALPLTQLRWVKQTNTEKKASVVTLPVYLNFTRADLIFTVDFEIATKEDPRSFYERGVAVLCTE
UniProt Q86TI2: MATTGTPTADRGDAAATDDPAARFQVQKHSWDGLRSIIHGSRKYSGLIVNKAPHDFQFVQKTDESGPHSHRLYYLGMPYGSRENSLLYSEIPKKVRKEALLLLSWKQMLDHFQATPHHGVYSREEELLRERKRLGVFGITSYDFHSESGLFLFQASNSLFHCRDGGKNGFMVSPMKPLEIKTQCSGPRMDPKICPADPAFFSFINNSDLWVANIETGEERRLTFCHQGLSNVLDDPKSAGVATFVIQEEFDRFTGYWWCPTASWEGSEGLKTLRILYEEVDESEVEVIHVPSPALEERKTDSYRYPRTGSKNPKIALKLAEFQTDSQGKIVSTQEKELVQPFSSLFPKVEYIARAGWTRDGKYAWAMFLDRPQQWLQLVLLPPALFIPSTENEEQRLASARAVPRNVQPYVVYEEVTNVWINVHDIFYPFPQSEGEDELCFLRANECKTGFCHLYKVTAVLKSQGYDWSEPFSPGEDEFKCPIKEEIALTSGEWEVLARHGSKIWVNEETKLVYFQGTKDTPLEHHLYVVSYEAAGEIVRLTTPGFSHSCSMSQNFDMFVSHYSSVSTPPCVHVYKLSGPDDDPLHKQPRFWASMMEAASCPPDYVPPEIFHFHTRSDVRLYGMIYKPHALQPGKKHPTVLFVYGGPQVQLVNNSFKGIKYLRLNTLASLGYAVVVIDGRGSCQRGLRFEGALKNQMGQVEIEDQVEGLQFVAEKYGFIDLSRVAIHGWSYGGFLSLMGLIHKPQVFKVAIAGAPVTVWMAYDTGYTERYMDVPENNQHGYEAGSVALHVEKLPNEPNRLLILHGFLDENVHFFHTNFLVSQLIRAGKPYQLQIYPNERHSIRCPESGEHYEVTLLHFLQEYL
UniProt P63172, whole entry, looked up: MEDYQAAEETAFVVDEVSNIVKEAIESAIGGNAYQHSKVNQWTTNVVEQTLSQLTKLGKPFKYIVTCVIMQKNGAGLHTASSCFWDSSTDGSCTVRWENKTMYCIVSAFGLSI
UniProt O43598: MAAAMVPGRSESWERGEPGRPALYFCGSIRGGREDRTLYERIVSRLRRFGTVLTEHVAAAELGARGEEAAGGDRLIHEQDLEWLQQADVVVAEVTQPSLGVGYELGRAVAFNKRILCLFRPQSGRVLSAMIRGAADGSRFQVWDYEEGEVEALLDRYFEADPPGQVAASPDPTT
UniProt Q15125: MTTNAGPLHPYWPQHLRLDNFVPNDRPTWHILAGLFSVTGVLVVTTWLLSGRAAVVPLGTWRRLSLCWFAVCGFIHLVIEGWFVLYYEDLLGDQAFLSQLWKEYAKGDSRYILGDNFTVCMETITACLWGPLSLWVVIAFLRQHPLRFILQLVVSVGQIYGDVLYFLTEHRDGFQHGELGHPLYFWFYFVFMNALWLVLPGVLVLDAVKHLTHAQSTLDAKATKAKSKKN
UniProt Q9Y6G9, whole entry, looked up: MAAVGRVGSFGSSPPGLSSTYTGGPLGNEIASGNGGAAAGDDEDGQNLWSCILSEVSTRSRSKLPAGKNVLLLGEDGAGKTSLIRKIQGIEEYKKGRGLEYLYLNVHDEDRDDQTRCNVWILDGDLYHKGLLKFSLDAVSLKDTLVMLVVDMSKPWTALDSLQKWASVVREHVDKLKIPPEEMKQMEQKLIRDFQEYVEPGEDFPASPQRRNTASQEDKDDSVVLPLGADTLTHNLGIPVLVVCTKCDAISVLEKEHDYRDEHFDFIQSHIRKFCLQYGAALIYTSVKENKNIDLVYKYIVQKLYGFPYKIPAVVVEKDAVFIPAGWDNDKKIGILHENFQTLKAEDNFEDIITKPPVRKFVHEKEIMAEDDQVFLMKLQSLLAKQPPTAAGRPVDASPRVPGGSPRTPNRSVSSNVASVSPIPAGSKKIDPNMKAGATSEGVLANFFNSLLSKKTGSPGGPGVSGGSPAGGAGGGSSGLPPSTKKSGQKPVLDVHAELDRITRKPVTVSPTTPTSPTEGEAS

Legend:
Experiment in all cases: log2 fold change, soluble protein after heating vs DMSO (PISA); higher = thermal stabilisation; K562 cells, 10 uM, 30 min; active = over 0.2 and 3.5 SD of the protein, either way, in both replicates (recomputed)
saracatinib = compound: CN1CCN(CCOc2cc(OC3CCOCC3)c3c(Nc4c(Cl)ccc5c4OCO5)ncnc3c2)CC1 [saracatinib]
How it was run: (§1)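 For each measurement, 10 μM compound was applied for 30 min to K562 cells at 2×10^6 cells/mL. Aliquots were heated for 3 min across 48°C-58°C, pooled, and extracted in PBS with 0.5% NP-40 at 4°C; the supernatant after 21,000xg for 90 min was soluble protein. This was quantified by TMTpro 16plex LC-MS/MS with channel sums equalised, and thermal stability was reported relative to control samples from duplicates, on a log2 fold-change scale.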

sotrastaurin = compound: CN1CCN(c2nc(C3=C(c4c[nH]c5ccccc45)C(=O)NC3=O)c3ccccc3n2)CC1 [sotrastaurin]
How it was run: as §1

alvocidib = compound: CN1CC[C@H](c2c(O)cc(O)c3c(=O)cc(-c4ccccc4Cl)oc23)[C@H](O)C1 [alvocidib]
How it was run: as §1

Tubastatin A = compound: CN1CCc2c(c3ccccc3n2Cc2ccc(C(=O)NO)cc2)C1 [Tubastatin A]
How it was run: as §1

[1] = compound: CNC(=O)C1=CC=CC=C1NC2=NC(=NC=C2Cl)NC3=C(C=C(C=C3)N4CCOCC4)OC
How it was run: as §1

defactinib = compound: CNC(=O)c1ccc(Nc2ncc(C(F)(F)F)c(NCc3nccnc3N(C)S(C)(=O)=O)n2)cc1 [defactinib]
How it was run: as §1

rucaparib = compound: CNCc1ccc(-c2[nH]c3cc(F)cc4c3c2CCNC4=O)cc1 [rucaparib]
How it was run: as §1

[2] = compound: CNc1nc(-c2ccc3c(N)n[nH]c3c2)cc(N2C[C@@H](C(=O)NC3CCCCC3)CC[C@H]2C)n1
How it was run: as §1

encorafenib = compound: COC(=O)N[C@@H](C)CNc1nccc(-c2cn(C(C)C)nc2-c2cc(Cl)cc(NS(C)(=O)=O)c2F)n1 [encorafenib]
How it was run: as §1

[3] = compound: COC(=O)[C@H](CCSC)NC(=O)C1=C(C=C(C=C1)NC[C@H](CS)N)C2=CC=CC=C2
How it was run: as §1

[4] = compound: COC1=CC=C(C=C1)CN2C=CC3=C2C=C(C=C3)C(=O)NO
How it was run: as §1

filanesib = compound: CON(C)C(=O)N1N=C(c2cc(F)ccc2F)S[C@@]1(CCCN)c1ccccc1 [filanesib]
How it was run: as §1

zotarolimus = compound: CO[C@H]1C[C@@H]2CC[C@@H](C)[C@@](O)(O2)C(=O)C(=O)N2CCCC[C@H]2C(=O)O[C@H]([C@H](C)C[C@@H]2CC[C@H](n3cnnn3)[C@H](OC)C2)CC(=O)[C@H](C)/C=C(\C)[C@@H](O)[C@@H](OC)C(=O)[C@H](C)C[C@H](C)/C=C/C=C/C=C/1C [zotarolimus]
How it was run: as §1

idasanutlin = compound: COc1cc(C(=O)O)ccc1NC(=O)[C@@H]1N[C@@H](CC(C)(C)C)[C@](C#N)(c2ccc(Cl)cc2F)[C@H]1c1cccc(Cl)c1F [idasanutlin]
How it was run: as §1

alisertib = compound: COc1cc(Nc2ncc3c(n2)-c2ccc(Cl)cc2C(c2c(F)cccc2OC)=NC3)ccc1C(=O)O [alisertib]
How it was run: as §1

[5] = compound: COc1cc2nc(-c3cc(F)ccc3O)nc(N[C@@H]3CNC[C@H]3C(C)(C)O)c2cc1OC
How it was run: as §1

gefitinib = compound: COc1cc2ncnc(Nc3ccc(F)c(Cl)c3)c2cc1OCCCN1CCOCC1 [gefitinib]
How it was run: as §1

[6] = compound: COc1cccc2cc(-c3nc([C@H]4CC[C@H](C(=O)O)CC4)n4ncnc(N)c34)[nH]c12
How it was run: as §1

lapatinib = compound: CS(=O)(=O)CCNCc1ccc(-c2ccc3ncnc(Nc4ccc(OCc5cccc(F)c5)c(Cl)c4)c3c2)o1 [lapatinib]
How it was run: as §1

pictilisib = compound: CS(=O)(=O)N1CCN(Cc2cc3nc(-c4cccc5[nH]ncc45)nc(N4CCOCC4)c3s2)CC1 [pictilisib]
How it was run: as §1

Measured: log2 fold change

DST (UniProt Q03001)
inactive: saracatinib -0.096 | sotrastaurin 0.05 | alvocidib 0.137 | Tubastatin A 0.07 | [1] -0.186 | defactinib 0.01 | rucaparib 0.133 | [2] 0.027 | encorafenib -0.059 | [3] -0.035 | [4] -0.337 | filanesib 0.038 | zotarolimus -0.026 | idasanutlin -0.006 | alisertib 0.046 | [5] 0.32 | gefitinib 0.037 | [6] 0.314 | lapatinib -0.16 | pictilisib 0.215

DYNC1H1 (UniProt Q14204)
inactive: saracatinib -0.022 | sotrastaurin -0.016 | alvocidib -0.047 | Tubastatin A 0.004 | [1] 0.016 | defactinib -0.006 | rucaparib -0.004 | [2] 0.033 | encorafenib 0.025 | [3] -0.024 | [4] 0.012 | filanesib -0.057 | zotarolimus 0.023 | idasanutlin -0.055 | alisertib -0.05 | [5] 0.008 | gefitinib 0.006 | [6] -0.001 | lapatinib 0.028 | pictilisib 0.008

DNAJB11 (UniProt Q9UBS4)
inactive: saracatinib -0.018 | sotrastaurin 0.02 | alvocidib 0.074 | Tubastatin A -0.039 | [1] 0.005 | defactinib 0.057 | rucaparib 0.027 | [2] -0.022 | encorafenib -0.038 | [3] 0.026 | [4] -0.058 | filanesib 0.013 | zotarolimus -0.081 | idasanutlin 0.008 | alisertib -0.023 | [5] -0.016 | gefitinib 0.021 | [6] 0.038 | lapatinib 0.008 | pictilisib 0.054

DSC2 (UniProt Q02487)
inactive: saracatinib -0.043 | sotrastaurin 0.109 | alvocidib 0.13 | Tubastatin A 0.066 | [1] 0.012 | defactinib -0.058 | rucaparib 0.12 | [2] -0.197 | encorafenib -0.012 | [3] 0.071 | [4] -0.051 | filanesib 0.073 | zotarolimus -0.083 | idasanutlin 0.134 | alisertib 0.029 | [5] 0.142 | gefitinib -0.016 | [6] -0.005 | lapatinib 0.05 | pictilisib -0.031

DSTN (UniProt P60981)
inactive: saracatinib -0.008 | sotrastaurin -0.035 | alvocidib -0.027 | Tubastatin A -0.053 | [1] 0.025 | defactinib -0.005 | rucaparib -0.022 | [2] -0.046 | encorafenib -0.005 | [3] 0.029 | [4] -0.006 | filanesib -0.037 | zotarolimus -0.011 | idasanutlin -0.018 | alisertib 0.053 | [5] 0.015 | gefitinib -0.002 | [6] -0.057 | lapatinib -0.016 | pictilisib 0.042

DPP9 isoform 2 (UniProt Q86TI2)
inactive: saracatinib -0.023 | sotrastaurin 0.021 | alvocidib -0.081 | Tubastatin A -0.032 | [1] -0.008 | defactinib -0.049 | rucaparib 0.049 | [2] 0.071 | encorafenib -0.026 | [3] -0.037 | [4] -0.013 | filanesib -0.053 | zotarolimus 0.001 | idasanutlin -0.083 | alisertib 0.002 | [5] 0.081 | gefitinib 0.018 | [6] 0.034 | lapatinib 0.039 | pictilisib -0.002

DYNLT1 (UniProt P63172)
inactive: saracatinib -0.021 | sotrastaurin -0.138 | alvocidib -0.236 | Tubastatin A 0.148 | [1] 0.097 | defactinib -0.04 | rucaparib 0.019 | [2] -0.015 | encorafenib 0.075 | [3] 0.013 | [4] 0.236 | filanesib -0.158 | zotarolimus 0.127 | idasanutlin -0.08 | alisertib -0.071 | [5] -0.012 | gefitinib -0.032 | [6] -0.128 | lapatinib 0.014 | pictilisib -0.189

DNPH1 (UniProt O43598)
inactive: saracatinib 0.034 | sotrastaurin 0.048 | alvocidib -0.004 | Tubastatin A 0.017 | [1] 0.108 | defactinib -0.061 | rucaparib 0.034 | [2] -0.037 | encorafenib -0.003 | [3] 0.007 | [4] 0.066 | filanesib 0.024 | zotarolimus -0.007 | idasanutlin 0.053 | alisertib -0.063 | [5] -0.053 | gefitinib 0.015 | [6] 0.04 | lapatinib -0.008 | pictilisib -0.015

Quoted from the results shown (two entries):
DYNLT1 (UniProt P63172)
inactive: saracatinib -0.021 | sotrastaurin -0.138 | alvocidib -0.236 | Tubastatin A 0.148 | [1] 0.097 | defactinib -0.04 | rucaparib 0.019 | [2] -0.015 | encorafenib 0.075 | [3] 0.013 | [4] 0.236 | filanesib -0.158 | zotarolimus 0.127 | idasanutlin -0.08 | alisertib -0.071 | [5] -0.012 | gefitinib -0.032 | [6] -0.128 | lapatinib 0.014 | pictilisib -0.189

DNPH1 (UniProt O43598)
inactive: saracatinib 0.034 | sotrastaurin 0.048 | alvocidib -0.004 | Tubastatin A 0.017 | [1] 0.108 | defactinib -0.061 | rucaparib 0.034 | [2] -0.037 | encorafenib -0.003 | [3] 0.007 | [4] 0.066 | filanesib 0.024 | zotarolimus -0.007 | idasanutlin 0.053 | alisertib -0.063 | [5] -0.053 | gefitinib 0.015 | [6] 0.04 | lapatinib -0.008 | pictilisib -0.015

(list continues)

EBP (UniProt Q15125)
inactive: saracatinib 0.054 | sotrastaurin -0.002 | alvocidib -0.229 | Tubastatin A -0.056 | [1] -0.066 | defactinib -0.075 | rucaparib 0.015 | [2] -0.096 | encorafenib -0.018 | [3] -0.01 | [4] -0.068 | filanesib -0.079 | zotarolimus -0.053 | idasanutlin 0.048 | alisertib 0.047 | [5] -0.01 | gefitinib -0.016 | [6] 0.047 | lapatinib -0.111 | pictilisib 0.049

EBAG9 isoform 2 (UniProt O00559)
inactive: saracatinib -0.119 | sotrastaurin 0.011 | alvocidib 0.01 | Tubastatin A 0.016 | [1] -0.082 | defactinib 0.04 | rucaparib -0.098 | [2] -0.019 | encorafenib 0.037 | [3] 0.015 | [4] 0.181 | filanesib -0.065 | zotarolimus 0.021 | idasanutlin 0.012 | alisertib -0.06 | [5] -0.024 | gefitinib 0.031 | [6] 0.089 | lapatinib 0.077 | pictilisib 0.112

DPH1 (UniProt Q9BZG8)
inactive: saracatinib 0.037 | sotrastaurin -0.035 | alvocidib 0.019 | Tubastatin A -0.032 | [1] -0.033 | defactinib -0.033 | rucaparib 0 | [2] -0.011 | encorafenib 0.021 | [3] -0.007 | [4] -0.037 | filanesib -0.004 | zotarolimus -0.083 | idasanutlin -0.029 | alisertib -0.059 | [5] -0.013 | gefitinib -0.043 | [6] -0.152 | lapatinib 0.033 | pictilisib -0.166

DNAJC12 (UniProt Q9UKB3)
inactive: saracatinib 0.045 | sotrastaurin 0.081 | alvocidib -0.017 | Tubastatin A 0.018 | [1] -0.021 | defactinib -0.008 | rucaparib -0.017 | [2] -0.046 | encorafenib 0.023 | [3] -0.011 | [4] -0.014 | filanesib 0.035 | zotarolimus -0.025 | idasanutlin -0.029 | alisertib -0.027 | [5] 0.085 | gefitinib 0.022 | [6] -0.008 | lapatinib -0.015 | pictilisib 0.055

DNAJB6 (UniProt O75190)
inactive: saracatinib 0.098 | sotrastaurin 0.002 | alvocidib -0.055 | Tubastatin A 0.005 | [1] 0.02 | defactinib -0.019 | rucaparib -0.044 | [2] -0.124 | encorafenib -0.074 | [3] 0.075 | [4] -0.115 | filanesib 0.046 | zotarolimus -0.031 | idasanutlin -0.075 | alisertib 0.027 | [5] 0.009 | gefitinib 0.02 | [6] -0.004 | lapatinib 0.008 | pictilisib 0.075

ECHS1 (UniProt P30084)
inactive: saracatinib 0.06 | sotrastaurin 0.065 | alvocidib -0.085 | Tubastatin A -0.017 | [1] 0.004 | defactinib -0.042 | rucaparib -0.062 | [2] 0.023 | encorafenib 0.032 | [3] -0.048 | [4] 0.068 | filanesib -0.017 | zotarolimus 0.02 | idasanutlin -0.093 | alisertib -0.054 | [5] -0.03 | gefitinib 0.01 | [6] -0.009 | lapatinib 0.058 | pictilisib -0.089

DSG2 (UniProt Q14126)
inactive: saracatinib 0.051 | sotrastaurin -0.018 | alvocidib -0.002 | Tubastatin A 0.03 | [1] -0.008 | defactinib -0.076 | rucaparib -0.031 | [2] -0.055 | encorafenib -0.01 | [3] 0.036 | [4] -0.02 | filanesib 0.056 | zotarolimus -0.06 | idasanutlin 0.094 | alisertib -0.052 | [5] -0.1 | gefitinib 0.003 | [6] -0.014 | lapatinib 0.032 | pictilisib 0.046

DYNC1LI1 (UniProt Q9Y6G9)
inactive: saracatinib -0.046 | sotrastaurin -0.059 | alvocidib -0.021 | Tubastatin A 0.006 | [1] 0.035 | defactinib 0.003 | rucaparib -0.017 | [2] 0.042 | encorafenib 0.062 | [3] -0.013 | [4] -0.029 | filanesib -0.037 | zotarolimus 0.004 | idasanutlin -0.034 | alisertib -0.039 | [5] -0.012 | gefitinib -0.013 | [6] -0.037 | lapatinib 0.031 | pictilisib 0.009
